# Test results reported in PubChem BioAssay AID1347423 (Functional Genomics Laboratory (NCATS/FGL), 2020).
# The campaign covered roughly 52,000 sequences. About 210 (0.4%) were called active.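 How the source made its calls: active means gene whose silencing raises cell survival under the drug, median off-target-corrected z-score across its silencing RNAs 2 or more; inactive means the rest.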 The list shows a part of the results.
# Assay: Resistance to Poly (ADP-Ribose) Polymerase inhibitor: Gene Identification via Genome-wide siRNA Screen
# Details: mouse BRCA2 R2336H ES cells, olaparib, CellTiter-Glo viability; hits give high values
# In short: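 Genome-wide siRNA screen (3 siRNAs/gene, 20 nM) in mouse ES cells carrying hypomorphic BRCA2 R2336H; olaparib 500 nM added 48 h post-transfection, CellTiter-Glo viability 72 h later. Normalized to plate-median negative control; MAD z-scores, gene median, seed-adjusted.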
row,Sequence,z-score
1,GCAACAUAUGUUCAAGAUCTT against 0610037D15Rik,inactive: 1.34
2,CCGUAUAGGUAGAUCCAGATT against Stmn1,inactive: 0.468
3,GCACCGUGUGACCAUGAACTT against Akt1,inactive: 0.964
4,GGAUUCAGACCACAAUACCTT against Klk4,inactive: 0.541
5,GGAAAACAUAAGGCAGUCUTT against Arl6ip2,inactive: -0.45
6,CCCUCAACCAUUGUUCGAGTT against Rasal1,inactive: 0.517
7,GGUUGCACUUUUUCAUAGUTT against Bcl2l2,active: 2.83
8,GGAAGAAGACACAAAAAAUTT against Dscr1l2,inactive: 0.66
9,GGUGUAUGGUCUCAACUUUTT against Enah,inactive: 0.603
10,GGCAAAAGUGGUUAUUGAATT against Itga6,active: 3.02
11,GGAGGUGGAUGAAGUAUUUTT against Nudt8,inactive: 1.97
12,CGAGGUCAAUUUUAGAGAGTT against Tceb1,inactive: -0.816
13,GGAAAUUGCCAGUAAGGUGTT against Sdh1,inactive: -0.465
14,GGACUGUGGAUGAGUCCGUTT against Dnmbp,inactive: -2.13
15,GGAUAAGAGCAUCUCUUCATT against Sdhd,inactive: 0.514
16,UCAGCGAGCUUUAACCUUUTT against Olfr1028,inactive: 0.731
17,CCUCCGGUCUUAUCAUGCATT against Sec61a1,inactive: -1.27
18,CCGCACCAGGGAAAAUGCUTT against Crym,inactive: 1.29
19,GGACCAAUAAACCUAGAACTT against Dact1,inactive: 1.65
20,CGGUACUUCAUUGUAAUUUTT against Slc20a2,inactive: -0.0929
21,GGUCGUUAAAAAAGAUGUGTT against 0610039J04Rik,inactive: -1.15
22,GGAGCUGGAGAGAUGUUAGTT against D10Ertd641e,inactive: -2.89
23,GGUUCCACAGUGGCAAAUGTT against V1ri7,inactive: -0.665
24,GGACAAACCUUGGAAGAUUTT against 2410075B13Rik,inactive: 0.667
25,GGCAUAUGCUGAUUAUAGATT against Ankrd5,inactive: 0.787
26,GCCUGACUUUAAUGAAGAATT against 6030443O07Rik,inactive: 0.356
27,CGGAGAGCCUUCCAUAUGATT against Ndufb8,inactive: -0.0787
28,CCCAGGUCCUACCUUCUUUTT against 8430432M10Rik,inactive: -0.47
29,GCAGGGACUAUCAGAGUUCTT against D430018E03Rik,inactive: 0.959

# As entered above:
# Value of GGAGGUGGAUGAAGUAUUUTT against Nudt8 under z-score: inactive: 1.97
# Value of GGUCGUUAAAAAAGAUGUGTT against 0610039J04Rik under z-score: inactive: -1.15
